In patent US11591298B2, “Bisaminoquinoline compounds, pharmaceutical compositions prepared therefrom and their use” (THE TRUSTEES OF THE UNIVERSITY OF PENNSYLVANIA, priority 2011, dated 2023):
Some entries share one result that the patent states for a list of compounds. Some compounds share one range, which may span the group rather than tell each member.

System: LN229 (glioma), 1205Lu (melanoma), HT-29 (colon) and c8161 (melanoma) cells
Assay: MTT assay (72 hours) in 4 cell lines
Assay type: cell-based
Conditions: collectively for Lys02, Lys03, HCQ
Description: FIGS. 4A, 4B, 4C, 4D. […] White arrows: small puncta; red arrows: dense puncta. Graphs show mean+/−SEM puncta/cell. (4B) Representative electron micrographs of LN229-GFP-LC3 cells treated (4 hours) with DMSO, HCQ 10 μM, or Lys01 10 μM Arrows: Autophagic vesicles. (4C) LC3 immunoblotting of LN229 cells treated for 24 hours an indicated; calculated ratio of LC3II/LC3I ratios for bafilomycin versus control co-treatment. […] (4D) MTT assay (72 hours) for 4 cell lines. Red: Lys01, Blue: Lys02, Purple: Lys03 Green: Lys04 Orange: HCQ. Values presented are means+/−SEM with 5 replicates per treatment.
The MTT assay was used to assess viable cells at 72 hours.

Question: `CCN(CCO)CCCC(C)Nc1ccnc2cc(Cl)ccc12` (stereo not shown) [HCQ, hydroxychloroquine, reference compound] was tested. Which “fold less potent than Lys01 (MTT IC50)” value did it give?
Answer: 9-30 fold
